Reference: patent US20200239586A1
No constants are given. Whether binding was seen depends on the method and setting. Some entries that bind do so weakly or less than the wild type. For part of these data: Where a sequence is shown, tags or fusion partners need not be part of it.

Experiments:
[1] = biological target: T1, recombinant Fn14-Fc (human) (UniProt Q9NP84); assay: Western blot
T1 sequence: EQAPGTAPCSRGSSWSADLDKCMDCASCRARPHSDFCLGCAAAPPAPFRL

[2] = biological target: T1, recombinant Fn14-Fc (human); assay: ELISA on coated Fn14-Fc
[3] = biological target: T1, recombinant Fn14-Fc (human); assay: Western blot of Fn14-Fc
[4] = biological target: T2, phage-displayed hFn14 sub-domain 2 (human); assay: phage ELISA, mAb coated (Method 1)
T2 sequence: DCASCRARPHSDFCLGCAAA

[5] = biological target: T3, His-tagged recombinant hFn14 mutant R58A (human) (UniProt Q9NP84); assay: ELISA on coated His-tagged protein
T3 sequence: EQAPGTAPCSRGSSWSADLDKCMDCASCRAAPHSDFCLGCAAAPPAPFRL

[6] = biological target: T2, phage-displayed hFn14 sub-domain 2 (human); assay: phage ELISA, antibody on plate, 10-fold phage dilutions
[7] = biological target: T1, recombinant Fn14-Fc (human); assay: ELISA, Fn14-Fc on plate, dilution series of CRCBT-06-001
[8] = biological target: T1, recombinant Fn14-Fc (human); assay: ELISA, antigen coated at 2 µg/mL, primary antibody 1 µg/mL
[9] = biological target: T2, phage-displayed hFn14 sub-domain 2 (human); assay: phage ELISA, antibody on plate, highest phage concentration
[10] = biological target: T3, His-tagged recombinant hFn14 mutant R58A (human); assay: ELISA with purified His-tagged hFn14 R58A; x axis 'Log (c)' without unit, µg/ml by the legend
[11] = biological target: T1, recombinant Fn14-Fc (human); assay: ELISA on coated Fn14-Fc, mAb at 1 µg/ml

Measured: binding

B1: CRCBT-06-001 (antibody, IgG2b, V domains shown)
VH: QVQLQQSGGGLVQPGGSMKLSCIASGFTFSSYWMSWVRQSPEKGLEWVAEIRSKSDNYATHYAESVKGKFTISRDDSKSRFFLQMNNLRAEDTGIYYCSSTYADYFHYWGQGTDLTVSS
VL: DIVMTQTPASLAVSLGQRATISCRASQSVSTSTYSYMHWYQQKPGQPPKLLIKYASSLESGVPARFSGSGSGTDFTLNIHPVEEDDTATYYCQHSWEIPYTFGGGTKLEIKR
not listed: [11]
binds: all other assays above

B2: CRCBT-06-002 (antibody, IgG1, V domains shown)
VH: EVKLQQSGGGLVQPGGSMKLSCVASGFTFSYYWMNWVRQSPEQGLEWIAEIRLQSNDYPTHYAESVKGRFTISRDDSKNSVYLQMNNLRPEDTGIYYCACRYADYFDHWGQGTTLTVSS
VL: DTVLTQSPASLVVSLGQRATISCRASQSVSTSDYSYIHWYQQKPGQPPKFLIKYASNRDSGVPARFSGSGSGTDFTLNIHPVEEDDTAIYYCQHSWEIPPTFGAGTKLELQR
not listed: [1] | [2] | [3] | [7]
binds: all other assays above

B3: CRCBT-06-005 (antibody, IgG2b, V domains shown)
VH: QVQLQESGGGLVQPGGSMKLSCVASGFTFSYYWMNWVRQSPEQGLEWIAEIRLQSNDYPTHYAESVKGRFTISRDDSKNSVYLQMNNLRPEDTGIYYCACRYADYFDHWGQGTTLTVSS
VL: DIVLTQTTASLTVSLGQRATISCRASQSVSTSTYSYMHWYQQTPGQPPTVLIKYASSLESGVPTRFSGSGSGTDFTLNIHPVEEEDTATYYCQHSWEIPYTFGGGTKLEIKR
not listed: [1] | [2] | [3] | [7]
binds: all other assays above

B4: CRCBT-06-006 (antibody, IgG2a, V domains shown)
VH: QVQLQESGGGLVQPGGSMKLSCVASGFTFSYYWMNWVRQSPEQGLEWIAEIRLQSNDYPTHYAESVKGRFTISRDDSKNSVYLQMNNLRPEDTGIYYCACRYADYFDHWGQGTTLTVSS
VL: DIVITQSPASLTVSLGQRATISCRASQSVSTSTYSYMHWYQQTPGQPPTVLIKYASSLESGVPTRFSGSGSGTDFTLNIHPVEEEDTATYYCQHSWEIPYTFGGGTKLEIKR
binds: [4] | [11] | [6] | [8] | [9]

B5: CRCBT-06-007 (antibody, IgG2b, V domains shown)
VH: QVKLEESGGVLVQPGGSMKLSCIASGFSFSKYWMNWVRQSPEKGLEWVAEIRVKSNNYATHYAESVKGRFIISRDDSKSSVYLQMNNLRAEDTGIYYCTKSYADYFDYWGQGTTLTVSS
VL: DIVMTQSTASLAVSLGQRATISCRASQSVSTSSYSYMHWYQQKPGQPPKVLIKYASNLESGVPARFSGSGSGTDFTLNIHPVEEEDAATYYCQHSWEIPYTFGGGTKLEIKR
binds: [4] | [11] | [6] | [8]
